The campaign covered roughly 6,900 compounds. Fewer than 10 were called active. The call rests on the fitted dose curve; in most records, active means well fitted curve in the direction sought with a large enough effect; inconclusive means small, poorly fitted or top-dose-only effect, or another doubt; inactive means no such curve, though single readings can be large or run the other way. This is one part of the list.
The compounds below were run against Metallo-beta-lactamase type 2 (Klebsiella pneumoniae) (UniProt C7C422) (assay: qHTS to identify inhibitors of the New Delhi Metallo-beta-lactamase (NDM): primary screen against the NCATS Gemini Collection). Conditions: NDM-1 enzyme, meropenem hydrolysis, absorbance 300 nm; at 38.4 µM (top of the series) unless noted.
Description: Assay Submitter (PI): James Inglese Ph.D., Patricia Dranchak Ph.D., Mahesh Aitha Ph.D. Assay Development and Screening Technology Laboratory (ADST) National Center for Advancing Translational Sciences (NCATS), Rockville, MD National Institute of Health (NIH), Bethesda, Maryland The metallo-beta-lactamases (MBL) are a main antibiotic resistance mechanism evolved by bacteria. There is an urgent clinical need for MBL inhibitors to mitigate this growing threat. To support a machine-based learning study, qHTS has been used to experimentally test inhibitors identified by prediction tools.
PROTOCOL TABLE (as described by Inglese et al., 2007) SEQUENCE No. (e.g., 1, 2, 3, etc.); […] (e.g., enzyme, Incubation, Reagent, etc.); VALUE; DESCRIPTION 1; NDM-1; 4 uL of 3 nM enzyme [2 nM final] in 50 mM HEPES (pH 7.0), 1 uM […], 0.01% Tween20; Use BioRaptr to dispense into Aurora black, clear bottom low base 1536-well plates 2; Compounds; 23 nL; Use Pin Tool (Wako) to transfer DMSO control and library compounds in DMSO 3; Incubate; >30 min 4; Reagent; 2 uL of 150 uM meropenem [50 uM final] 5; Incubate; 30 min. 6; Detector; Absorbance at 300 nm (bandwidth = 5 nm, 25 flashes/well) on Tecan Infinity NOTES (numbers refer to sequence above) 1; Column 1 of each plate received assay buffer without enzyme and columns 2-48 received enzyme for a final assay concentration of 2 nM. 2; Control plate contained DMSO in columns 1, 2, 3, and 4. 3; Compound interaction with enzyme. 4; Meropenem substrate was prepared in the same assay buffer as step 1 for a final assay concentration of 50 uM and added to all wells across the assay plates. 5; Substrate interaction with enzyme, plateau phase of kinetics. 6; Default reader settings were applied for absorbance read at 300 nm, bandwidth = 5 nm, 25 flashes/well. References: Inglese J, Shamu CE, Guy RK. 2007. Reporting data from high-throughput screening of small-molecule libraries. Nat Chem Biol. doi:10.1038/nchembio0807-438 Yasgar A, Shinn P, Jadhav A, Auld D, Michael S, Zheng W, Austin CP, Inglese J, Simeonov A. 2008. Compound Management for Quantitative High-Throughput Screening. J Lab Autom 13:79 - 89. doi:10.1016/j.jala.2007.12.004
Wherever Activity % (negative = inhibition) is given: % of control where 0% means no effect.

By UniProt entry, the sequences of proteins in these tests, tags left out. Where a name states a change or a piece, a line headed by the entry shows the natural chain unless it says otherwise.
UniProt C7C422: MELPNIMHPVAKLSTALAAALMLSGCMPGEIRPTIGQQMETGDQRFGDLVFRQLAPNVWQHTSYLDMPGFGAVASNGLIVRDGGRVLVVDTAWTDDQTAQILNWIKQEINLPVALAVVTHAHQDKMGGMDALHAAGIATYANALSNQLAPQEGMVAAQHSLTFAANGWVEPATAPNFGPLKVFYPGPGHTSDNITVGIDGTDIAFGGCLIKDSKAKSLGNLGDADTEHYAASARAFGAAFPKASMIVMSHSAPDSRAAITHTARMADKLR

Activity % (negative = inhibition), inactive:
CCn1cnnc1-c1nn(C)c2c1CN(C(=O)CCCc1nc3ccccc3s1)CC2 1.88%
COc1ccc(N2C(=O)[C@@H]3Cc4nc[nH]c4CN3C2=O)cc1 -0.871% [at 57.5 µM]
O=C(c1cc(F)ccc1F)N1CCC(Oc2cccnc2)C1 (stereo not drawn) 20.7%
CC(=O)Nc1ccc(-c2c(C(C)C)nn(-c3cccc(F)c3)c2OC(C)=O)cc1 7.68%
Cc1cccc(-c2nc3cc(C(=O)NCc4ccc(F)cc4)ccc3o2)n1 10% [at 57.5 µM]
O=C(c1ccco1)N1Cc2[nH]cnc2C[C@H]1c1nc(-c2ccncc2)no1 21.4% [at 57.5 µM]
N#Cc1ccc(CN2CCCC3(Cc4ccccc4NC3=O)C2)cc1 (stereo not drawn) -1.1%
Cc1noc2c(N3CCOCC3)cc(-c3cccnc3)nc12
O=C1NCCCCCCN(C(=O)c2ccccn2)[C@H]2CCCC[C@@H]12 7.82%
COc1cccc(COC2CN(CC(C)C)C(=O)CN(C(=O)c3csc(C(C)=O)c3)C2)c1 (stereo not drawn) 50.1%
CCCCCC(=O)N[C@H]1C[C@@H](Cc2cc(CN3CCOCC3)on2)C1(C)C -1.22% [at 57.5 µM]
c1ccc(-c2ccnc3nc(CCC4CCCC4)nn23)nc1 3.24%
CCOc1cc(=O)n2c(c1C(=O)NC1CCCC1)CCCCC2 9.27%
Cc1cc(C)n(Cc2cc(C(=O)N(C)C(C)c3ccon3)n[nH]2)n1 (stereo not drawn) -4.62%
COCCc1noc(-c2ccc(N(C)Cc3ncc(C)[nH]3)nc2)n1 1.88%
COc1ccc(NC(=O)c2ccc3c(c2)n(C)c(=O)c2ccnn23)cc1OC 4.72%
Cc1nn(-c2ccccc2)c2c1C(C)N(C1CCN([S+](=O)([O-])c3c(C)noc3C)C1)C2=O (stereo not drawn) 7.76%
COC[C@@H]1CNC[C@H]1c1ccccn1 2.02%
CC(C)(C)c1cnc([C@@H]2COCCN2C2CCCCC2)[nH]1 15% [at 77.1 µM]
O=[S+]1([O-])NC2(CCCN(Cc3c(F)cccc3Cl)C2)COc2ccccc21 (stereo not drawn) -0.277%
COc1ccc2c(c1)OCC(C(=O)NCc1noc(-c3ccco3)n1)C2 (stereo not drawn) -1.85%
COc1cccc(C(=O)NC2CCCN(c3ccc4nnc(C5CC5)n4n3)C2)c1 (stereo not drawn) 91.3%
O=C1CC2(CCN(C(=O)C3CCCN3C(=O)c3ccc(Cl)nc3)CC2)Oc2ccccc2N1 (stereo not drawn) 5.59%
Cc1ccc(-c2nc(C3CC(=O)N(c4ccc(F)c(Cl)c4)C3)no2)cc1C (stereo not drawn) -1.66%
C=CCCOC(=O)N1C[C@@H](CO)[C@@H]2Oc3ccc(Cl)cc3[C@@H]21 9.79%
CCC1(C(=O)NCCc2ccccc2)CCCCC(=O)N1 (stereo not drawn) 2.31%
O=C(C1CCCC1)N1CCC(Oc2cccnc2)C1 (stereo not drawn) 8.92%
COC(=O)[C@H](NC(=O)[C@@H]1C[C@H](NC(=O)Nc2ccc(OC)cc2)CN1C(=O)CSC)C(C)C -3.63%
COC[C@@H]1CN(Cc2cn[nH]c2-c2ccccc2)C[C@H]1c1nc(C)no1 -5.09%
CC(C)(C)c1cc(C[C@@H]2C[C@H](NS(C)(=O)=O)C2(C)C)no1 16.2% [at 57.5 µM]
COc1cccc(C(=O)N2CCCC(COc3ccccc3C(=O)N3CCOCC3)C2)c1 (stereo not drawn) 0.198%
Cc1nn(C(=O)CCC(=O)N2CCC(Cc3nncn3CC3CC3)CC2)c2ccccc12 6.68%
O=C(Nc1ccc(F)c(Cl)c1)c1cnc(-c2ccccc2)nc1-c1ccncc1 16.8%
CC1(C)C(=O)N(Cc2ccccc2F)[C@H]2CN(C3CCOCC3)C[C@H]2[S+]1(=O)[O-] 4.1% [at 57.5 µM]
CCN(CC)Cc1cnc2c(C(=O)NC3(C(N)=O)CCCC3)cnn2c1 0.0167%
COc1ccc(CN2CCC([C@@H]3CNC[C@H]3CO)CC2)c(Cl)c1OC -2.45%
FC(F)(F)c1cccc(C2=NOC3(CCN(Cc4ccccc4)CC3)C2)c1 1.91%
CCc1noc([C@@H]2CC(F)(F)CN2C(=O)CCn2cc(C)cn2)n1 2.72%
COC1CN(c2cccc(F)c2)C12CCN(C(=O)CC1CCCCC1)CC2 (stereo not drawn) 16.3%
COc1cc(C(=O)N[C@@H]2[C@@H](c3ccccc3)[C@@H](CO)N3CCCC[C@H]23)cc(OC)c1OC 15.3%
O=S(=O)(Cc1noc([C@@H]2C[C@@H](O)CN2CC2CC2)n1)c1ccc(F)cc1 -0.858% [at 57.5 µM]
COCC(=O)NC[C@H]1CCN(Cc2ccc(Br)o2)C[C@H]1N(C)C 6.59%
NCc1cccc(-c2cncnc2)c1 3.11% [at 57.5 µM]
Cc1ccc(C#N)c(-c2cc(NCc3cccnc3)nc3[nH]ccc23)n1 0.724%
O=C1CO[C@H]2CCN(Cc3ccc4c(c3)CCO4)CC[C@@H]2N1Cc1ccccc1 -3.43% [at 57.5 µM]
COc1ccccc1-c1[nH]nc2ncc(C(=O)N3C[C@@H](C)O[C@@H](C)C3)nc12 5.6% [at 57.5 µM]
O=C(C1CC2(CCNCC2)CN1)N1CCC(c2nc3ccccc3[nH]2)CC1 (stereo not drawn) -3.12%
O=C1CCN(S(=O)(=O)c2ccccc2)CCCN(C(=O)c2c[nH]c3ccccc23)CCN1 29.4%
CC1=C[C@@H](CNS(=O)(=O)c2cccc(C#N)c2)[C@H](C(C)C)C[C@H]1CC(=O)N(C)Cc1cccnc1 -3.82%
COc1ccccc1-c1ccc(C(=O)N2CCC(NC(=O)Cc3ccc(F)cc3)CC2)cc1 0.473%
COc1ccc(CC2CN(Cc3cccc(-n4cccn4)c3)CCO2)cc1 (stereo not drawn) -0.751%
COCCn1c(=O)c(C(=O)N2CCN(C(C)=O)CC2)nc2cccnc21 4.52%
O=C(NCC1CN(Cc2cccc(O)c2)CC12CN(c1ccccc1)C2)c1ccccc1 (stereo not drawn) -0.104% [at 57.5 µM]
COc1ccccc1CCC(=O)N1c2ccccc2CC1c1nc(C2CC2)no1 (stereo not drawn) -1.88%
O=C(O)Cc1cccn1-c1ccc(Cl)cc1 -8.23%
Cn1cc(CN2C[C@H](C(=O)Nc3ccn(C)n3)C[C@@H]2c2cccc(C(F)(F)F)c2)cn1 -1.49% [at 57.5 µM]
CC1CCCN(C(=O)c2coc(COc3cccc(F)c3F)n2)C1 (stereo not drawn) -4.78%
CC(C)CCN1C(=O)CC[C@H]2CN(C(=O)Cn3ccc(=O)[nH]c3=O)CC[C@H]21 -1.24%
CCOCCOC1CCN(C(=O)c2nn(C)c3ccccc23)CC1 12%
CC(C)c1nc(-c2ccc(OC3CCN(C(=O)c4n[nH]c5ccccc45)C3)cc2)no1 (stereo not drawn) 8.75%
O=C(c1ccc(Br)o1)N1CCC(c2n[nH]c(=O)n2Cc2ccc(F)cc2)CC1 -6.15%
COc1ccc(CN2CCC(N3CCOC3=O)CC2)cc1 5.85%
COc1cc(NC(=O)CCC2CCCN(C(=O)CCN3CCCCO3)C2)cc(OC)c1 (stereo not drawn) 8.56%
O=C(c1cccnc1)N1CCN(c2cc(-c3ccccc3)[nH]n2)CC1 -7.54%
O=S(=O)(c1ccccc1)N1CC(Oc2ccc(-c3noc(C4CC4)n3)cc2)C1 -0.784%
COCCN1CCCC1c1nc(C2CN(S(=O)(=O)c3cccc(OC)c3)C2)no1 (stereo not drawn) 7.75%
O=C(N[C@@H]1CCOC[C@H]1Oc1cccc(F)c1)c1cnc2ccccn2c1=O -1.67%
CCc1cccc2c(C(CC(=O)N3CCCCC3)c3cccc(OC)c3)c[nH]c12 (stereo not drawn) 15.2%
O=C(NC1CCN(c2nc3ncccc3o2)C1)c1ccccc1F (stereo not drawn) 2% [at 57.5 µM]
CCCCN1C(=O)CC[C@H]2CN(C(=O)CCn3cccc3)CC[C@H]21 -0.184%
O=C(NC1CCc2n[nH]c(=O)n2CC1)c1ccc(Cn2ccnc2)o1 (stereo not drawn) -6.33%
CCN(CC)C(=O)[C@@H]1C[C@@H](n2cc(Cn3c(C)nc4ccccc43)nn2)CN1 7.7%
Cc1noc(C)c1-c1cc2cc(CO)oc2c(-c2ccc([S+](C)(=O)[O-])cc2)n1 11.9% [at 57.5 µM]
CNC(=O)N1CCC(C2CCN(C(=O)c3cnccc3C)C2)CC1 (stereo not drawn) 2.76%
CCc1noc(-c2cn(C3CCN(C(=O)C4(c5ccccc5)CC4)C3)nn2)n1 (stereo not drawn) 6.75%
NC(=O)C1(N2CCCCC2)CCN(c2nccc(-c3ccncc3)n2)CC1 22.1%
O=C(CCc1c[nH]c2ccccc12)NC1CCc2n[nH]c(=O)n2CC1 (stereo not drawn) 2.13%
CCN1C(=O)Cc2ccccc2C1C(=O)N(C)Cc1ccco1 (stereo not drawn) 6.32%
O=S(=O)(c1cccnc1)N1CC(F)(F)C[C@H]1c1nc(C2CC2)no1 -0.53%
Cc1ccccc1-c1nc(Cn2ccnc2C(C)C)c(C)o1 13.6%
COc1cccc(C(=O)N2CC3(Cc4ccccc4CN3[S+](C)(=O)[O-])C2)c1 0.91%
CC1(C)C(=O)N(CC2CCOCC2)[C@H]2CN(Cc3cccnc3N)C[C@H]2[S+]1(=O)[O-] 3.1% [at 57.5 µM]
O=c1cc(N2CCOCC2)oc2c(Nc3ccccc3)nccc12 14.4% [at 57.5 µM]

A draw from above in order of heavy-atom count, high to low.
Activity % (negative = inhibition), inactive:
Cc1nn(-c2ccccc2)c2c1C(C)N(C1CCN([S+](=O)([O-])c3c(C)noc3C)C1)C2=O (stereo not drawn) 7.76%
CCn1cnnc1-c1nn(C)c2c1CN(C(=O)CCCc1nc3ccccc3s1)CC2 1.88%
COc1cccc(C(=O)NC2CCCN(c3ccc4nnc(C5CC5)n4n3)C2)c1 (stereo not drawn) 91.3%
Cc1ccc(-c2nc(C3CC(=O)N(c4ccc(F)c(Cl)c4)C3)no2)cc1C (stereo not drawn) -1.66%
CC1CCCN(C(=O)c2coc(COc3cccc(F)c3F)n2)C1 (stereo not drawn) -4.78%
O=C(C1CCCC1)N1CCC(Oc2cccnc2)C1 (stereo not drawn) 8.92%

— PubChem BioAssay AID1794845 (National Center for Advancing Translational Sciences (NCATS), 2023)
